Source: paper PMC5700102, “Primer synthesis by a eukaryotic-like archaeal primase is independent of its Fe-S cluster” (Nature Communications, 2017)
These are yes or no findings as the source states them, for the method shown. Some results given as binding are weak or reduced against the parent protein; the word gives no strength.

Biological target: T1, PriS, catalytic subunit of the heterotrimeric primase PriSLX from S. solfataricus (S. solfataricus) (UniProt Q97Z83)
T1 sequence: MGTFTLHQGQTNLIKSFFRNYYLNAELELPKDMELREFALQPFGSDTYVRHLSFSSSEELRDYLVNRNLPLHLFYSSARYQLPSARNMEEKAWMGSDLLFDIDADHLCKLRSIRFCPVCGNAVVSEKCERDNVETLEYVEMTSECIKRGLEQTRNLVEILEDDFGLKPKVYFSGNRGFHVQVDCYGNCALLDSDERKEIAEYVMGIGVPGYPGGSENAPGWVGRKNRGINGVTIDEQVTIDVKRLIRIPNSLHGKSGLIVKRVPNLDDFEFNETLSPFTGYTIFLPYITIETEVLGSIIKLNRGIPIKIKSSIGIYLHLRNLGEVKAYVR
Test: crystal structure; PriSLX heterotrimer, 2.9 Å; crystallised with 1 mM MnCl2, 2 mM AMPCPP and an RNA-DNA hybrid (not seen in the map); two heterotrimers in the asymmetric unit; both purified

B1: PriL, regulatory subunit of the heterotrimeric primase PriSLX from S. solfataricus (protein, UniProt Q9UWW1 1-307)
chain: MALDVKKYPFIKSLDDELKKYGGGITLTDLLLNSTTLIDQAKDRIQKTKSGDELPHYVSYNEPVLVFYTTLLSLAILNDVKLIRRYAYAEAKQFRSLLHTENEENLLEISKLLDLKINRCDPIKFYLEKKRRIIQKEFCVHFIDYLKYTKDLKEDWKLSGQILHKGYVYLDKNQLIGLIAESIKSKIVEMIRPLNLKEIPEKLKSLIERRGIIPPCIENILAKEKLNEEEIRTLITFYIDIGKGLSGIVSIMKKYNVSNVEDLYRKYRGDKGTRYIVYSCAKMKQLGLCVSSCNVKNPLQLYFLSNE
With B1 the binding was “binds”.
